For at least one compound, name, drawing or mass did not settle the structure.
Test: Gravimetric vapour sorption (GVS) analysis
Assay type: physicochemical
Conditions: classification in words; listed as oxalate

## O=C(NCc1ncn2ccc(Cl)c(F)c12)c1cn(Cc2cn3cc(C4CC4)ccc3n2)nn1 [Compound 6]
  GVS hygroscopicity: reduced hygroscopicity
